Results deposited as PubChem BioAssay AID1259405 (NCATS, 2018).
The whole screen tested about 50,000 reagents; below is a part drawn at random. About 4,000 of them (8%) were called active. 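Mouse siRNA library applied to hamster cells; one well for each siRNA.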 Unmarked entries are inactive. The numbers tell different reagents against one gene apart. Not all columns of the deposit are shown.

- Test: 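Mouse-designed siRNAs used to find CHO productivity engineering targets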 (primary screen)
- Cells: Chinese hamster CHO-K1 ovary cells with stable secreted eGFP expression
- Reagent: single siRNA against mouse genes, 0.8 pmol siRNA per well (2 µl of 400 nM stock)
- Time to read-out: 3 days
- Measured: 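Percent of the per-plate non-targeting control median for intracellular GFP per well by laser scanning cytometry and for cell viability by ATP luminescence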
- Direction: GFP, % of control: higher = more GFP per well, higher productivity
- Call rule: 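Called active when intracellular GFP, relative to negative control, is at or above 120%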

GFP, % of control, by target gene and reagent
Nr2e3: #1 131 (active); #2 65.7; #3 53.3
Pla2g2d: #1 78.5; #2 93.7; #3 72.3
Cst8: #1 67.8; #2 56.3; #3 35.6
Kremen1: #1 112; #2 65.4; #3 100
Plekho2: #1 51; #2 66.7; #3 70.7
Nectin1: #1 108; #2 102
Lrrc10: #1 59.9; #2 31.6; #3 138 (active)
Phlda1: #1 50; #2 84.9; #3 87.3
Fgfbp3: #1 67.1; #2 30.5; #3 65.4
Kcnn3: #1 101; #2 35.1; #3 39.1
Aadacl4fm1: #1 67.3; #2 72.2; #3 49
Tmem101: #1 58.3; #2 95.2; #3 86.3
Tedc2: #1 100; #2 134 (active); #3 142 (active)
Brinp1: #1 70.3; #2 159 (active); #3 140 (active)
Pik3cb: #1 32.1
Ccdc163: #1 52.6; #2 89.4; #3 88.2

A stretch of the results above, as a working copy:
GFP, % of control, by target gene and reagent
Plekho2: #1 51; #2 66.7; #3 70.7
Nectin1: #1 108; #2 102

Additional records follow:
GFP, % of control, by target gene and reagent
Or51f1e: #1 54; #2 123 (active); #3 88.7
Fmr1: #1 108; #2 87.6; #3 71.6
Sema4d: #1 115; #2 86.4; #3 67.9
Slc9a8: #1 119; #2 106; #3 95.8
Mex3b: #1 45.8; #2 60.8; #3 80.1
Ifng: #1 56.5; #2 77.5; #3 78.3
Smarce1: #1 60.4; #2 60.3
Rai2: #1 60.8; #2 58.3; #3 51.8
Ntan1: #1 48.3; #2 55.7; #3 104
Sorbs1: #1 88.4; #2 121 (active); #3 46
Or2f1b: #1 92.5; #2 86.8; #3 82
Fbxo44: #1 61; #2 90.2; #3 83.5
Vti1a: #1 90; #2 92; #3 90.5
Or5g25: #1 63.9; #2 56.4; #3 97.1
